Results: article PMC11997541 (Journal of Peptide Science, 2025)

Assay: general procedure: Fmoc solid-phase peptide synthesis; Rink Amide MBHA resin, loading 0.65 mmol/g; TBEC/Oxyma Pure
Details: whole synthesis, analytical HPLC-MS (Phenomenex Kinetex XB-C18, Agilent 1260 Infinity II, 6130 quadrupole LC/MS)

Row | Substance | final LC-MS purity [%]
1 | PEPTIDE1{[Laur].[D-His*].A.[dA].[D-His*].[am]}$$$$V2.0 | 95
2 | PEPTIDE1{[Palm].[L-His*].A.[dA].[L-His*].[am]}$$$$V2.0 | 95
3 | PEPTIDE1{[Laur].[L-His*].A.[dA].[L-His*].[am]}$$$$V2.0 | 96
4 | PEPTIDE1{[ac].[D-His*].A.[dA].[D-His*].[Aun].[am]}$$$$V2.0 | 99
5 | PEPTIDE1{[Palm].H.A.[dA].H.[am]}$$$$V2.0 | 97
6 | PEPTIDE1{[ac].H.A.[dA].H.[Aun].[am]}$$$$V2.0 | 99
7 | PEPTIDE1{[Palm].[D-His*].A.[dA].[D-His*].[am]}$$$$V2.0 | 95
8 | PEPTIDE1{[Laur].H.A.[dA].H.[am]}$$$$V2.0 | 96
9 | PEPTIDE1{[ac].[L-His*].A.[dA].[L-His*].[Aun].[am]}$$$$V2.0 | 99

Some peptides are written in HELM: one residue between dots, names in brackets for other building blocks, links after the first $.
